Reference: paper PMC11032391
These are yes or no findings as the source states them, for the method shown. Binding seen in cells or lysates may run through a third protein. Some results given as binding are weak or reduced against the parent protein; the word gives no strength. Tags and fused reporters may be left off the sequences shown.

Sequences of proteins named here, by UniProt entry; tags and fusion partners are left off.
UniProt P63208: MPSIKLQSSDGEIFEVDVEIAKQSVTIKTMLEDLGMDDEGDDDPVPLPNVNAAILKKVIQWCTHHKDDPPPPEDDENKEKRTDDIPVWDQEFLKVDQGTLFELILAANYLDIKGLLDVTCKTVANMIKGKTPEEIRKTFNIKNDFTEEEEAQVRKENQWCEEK

Molecular target: T1, Flag-tagged wild-type FBXO32 (UniProt Q969P5)
T1 sequence: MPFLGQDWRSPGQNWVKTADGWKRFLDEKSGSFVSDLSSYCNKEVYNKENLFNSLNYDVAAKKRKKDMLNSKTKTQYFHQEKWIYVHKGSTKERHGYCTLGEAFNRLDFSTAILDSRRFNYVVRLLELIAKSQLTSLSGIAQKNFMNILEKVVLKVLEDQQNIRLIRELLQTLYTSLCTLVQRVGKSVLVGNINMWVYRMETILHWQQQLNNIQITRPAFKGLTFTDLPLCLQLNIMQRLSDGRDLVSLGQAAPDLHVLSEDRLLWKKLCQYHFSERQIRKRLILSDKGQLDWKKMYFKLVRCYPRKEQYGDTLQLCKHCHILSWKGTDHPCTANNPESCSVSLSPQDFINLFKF
Assay: co-IP; exogenous: HEK293T cells transfected with the indicated plasmids (Myc-PTEN, Flag-FBXO32 wild type or deletion mutants), MG132 (10 uM, 6 h in Fig. 5C), RIPA lysate, antibody 2 h at room temperature, Protein A/G PLUS-Agarose overnight at 4 °C, immunoblot

binding: binds
Substance: SKP1 (from UniProt P63208 1-163)
